# Test results from PubChem BioAssay AID493014 (National Center for Advancing Translational Sciences (NCATS), 2011).
# This is one part of the list. Shown are side measurements of this screen, not its main read-out; they come without a call. The list favours compounds with an active or inconclusive main result. Words in brackets tell the shape of the fitted curve; partial curves, single points and poor fits give uncertain potencies.
# Experiment: qHTS Assay to Find Inhibitors of Chronic Active B-Cell Receptor Signaling
# Conditions: ABC-DLBCL IkBa-CBG/CBR reporter, luminescence ratio (green luciferase fused to IkBa over red control in TMD8 lymphoma cells), 4 h
# Method in brief: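 Doxycycline induced both beetle luciferases in TMD8 lymphoma cells; IKK-driven degradation limits the IkappaBalpha-fused green signal, while red luminescence normalises for cell number and nonspecific effects. Compounds tested up to 46 uM, 4 hrs.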
# [1] = measured here: CBR red luminescence, cell number
# [2] = measured here: IkBa-CBG green luminescence
SMILES,AC50 [1],AC50 [2]
CCc1ccc(NC(=O)C2CCCN(S(=O)(=O)c3cccs3)C2)cc1 (stereo not drawn),"1.78 µM [falling, partial curve, poor fit]",
O=C(Cc1ccc(S(=O)(=O)N2CCCCC2)s1)Nc1cccc2ccccc12,"6.51 µM [rising, partial curve, poor fit]",
C/C(=C(/CCO)SSCC1CCCO1)N(C=O)Cc1cnc(C)nc1N (stereo not drawn),"23.1 µM [falling, partial curve]",
Cc1ccc(/C(N)=N/OC(=O)c2ccc(Cl)cc2Cl)cc1,"1.16 µM [rising, full curve, poor fit]",
N/C(=N\OC(=O)c1ccoc1)c1ccc(Br)cc1,"0.562 µM [rising, full curve, poor fit]",
COc1ccc(-c2c(-c3ccccc3OC)sc3ccccc23)cc1,"1.41 µM [rising, partial curve, poor fit]",
Cc1ccc(NC(=O)CCCNC(=O)c2ccc(Cl)cc2)c(O)c1,"0.282 µM [rising, full curve, poor fit]",
CN1CCN(c2ccccc2NC(=O)C(Cc2ccccc2)n2cccc2)CC1 (stereo not drawn),"29.1 µM [falling, single point]",
O=C(CCCSc1ccc(Cl)cc1)Nc1ccccc1O,"0.447 µM [falling, full curve]",
Cc1ccccc1NC(=O)C(C)O/N=C/c1cccc([N+](=O)[O-])c1 (stereo not drawn),"2.91 µM [rising, partial curve, poor fit]",
COc1ccc(C(=O)COC(=O)/C=C/c2ccco2)cc1F,"20.6 µM [rising, partial curve, poor fit]",
NS(=O)(=O)c1cccc(NC(=O)COC(=O)CN2C(=O)C3CC=CCC3C2=O)c1 (stereo not drawn),"3.98 µM [rising, partial curve, poor fit]",
Cc1ccc(C(=O)NN2C(=O)c3ccc(S(=O)(=O)c4ccc(C(=O)O)cc4)cc3C2=O)cc1,"14.1 µM [falling, partial curve, poor fit]",
O=C(c1cc2cc([N+](=O)[O-])ccc2oc1=O)N1CCOCC1,"3.16 µM [falling, full curve]","0.316 µM [rising, full curve]"
CS(=O)(=O)c1ccc(C(=O)OC2CCOC2=O)cc1[N+](=O)[O-] (stereo not drawn),"15.8 µM [falling, single point]",
O=C(NCCC1CCCCN1S(=O)(=O)c1cccs1)C(=O)Nc1cccc(F)c1 (stereo not drawn),"2.91 µM [falling, full curve]",
COc1ccc(CN2C(=O)CCC2(C)C(=O)NCc2cccnc2)c(OC)c1 (stereo not drawn),"35.5 µM [falling, single point]",
Cc1cc(C)c2c(N)c(C(=O)Nc3ccccc3C(F)(F)F)sc2n1,"3.55 µM [falling, full curve, poor fit]",
COc1ccccc1C/C(N)=N/OC(=O)c1cccc([N+](=O)[O-])c1C,"23.1 µM [rising, partial curve, poor fit]",
COc1ccccc1-c1n[nH]c(=S)n1Cc1ccco1,"15.8 µM [falling, partial curve]",
O=c1c2cnn(-c3ccccc3)c2ncn1Cc1ccco1,"5.8 µM [falling, single point]",

SMILES,AC50 [1],AC50 [2]
N#CC1=C(N)N2C(=C(C#N)C13CCN(Cc1ccccc1)CC3)Nc1ccccc12,"16.4 µM [falling, single point]",
C/C(=N\NC(=O)c1c[nH]c2ccccc12)c1ccc2c(c1)OCO2,"15.8 µM [falling, partial curve]",
Nc1ccc(-c2c3ccc(=O)cc-3oc3cc(O)ccc23)cc1C(=O)O,"6.31 µM [rising, single point]",
CC(C)C(=O)Nc1ccc(N2CCN(C(=O)c3cccs3)CC2)cc1,"13 µM [rising, single point]",
CC(C)(C)OC(=O)C[C@@H]1C/C=C\C[C@@H](CC(=O)NCCO)C(=O)N[C@H](C(C)(C)C)COC1=O,"6.51 µM [falling, single point]",
COc1ccc(CCn2c(C)cc(C(=O)CCl)c2C)cc1OC,"35.5 µM [falling, single point]",
CC1CC(N(C(=O)c2ccco2)c2ccccc2)c2ccccc2N1C(=O)c1ccco1 (stereo not drawn),"29.1 µM [falling, single point]","20.6 µM [rising, partial curve, poor fit]"
Cc1ccc2cc(NC(=O)c3ccccc3)ccc2n1,"7.08 µM [falling, partial curve, poor fit]",
Cc1ccc2nc3n(c(=O)c2c1)-c1ccccc1C(=O)NC3Cc1ccccc1 (stereo not drawn),"29.1 µM [rising, single point]",
Cc1cccc(NC(=O)c2cc(-c3cc(C)ccc3O)n[nH]2)c1,"3.55 µM [falling, full curve]",
CCOC(=O)C(C)On1c(-c2ccc(Cl)cc2)nc2ccc([N+](=O)[O-])cc21 (stereo not drawn),"11.6 µM [rising, partial curve, poor fit]",
CN(/N=C/Cc1nnnn1-c1ccc(Cl)cc1)c1ccccc1,"3.16 µM [falling, single point]",
Cc1oc2c(c1C(=O)c1ccccc1)C(=O)C(=O)c1ccccc1-2,"15.8 µM [falling, single point]",
CCCCOC(=O)c1ccc(NC(=S)NC(=O)c2c(Cl)cnn2CC)cc1,"3.98 µM [rising, single point]",
COc1ccc(-c2cc3nc(C)n(N)c(=O)c3s2)cc1,"3.98 µM [falling, partial curve]",
O=C(c1ccc(Cl)cc1)C(Cn1cncn1)C(Sc1ccccc1)c1ccccc1 (stereo not drawn),"2.06 µM [falling, partial curve, poor fit]",
CCCC(C(=O)Nc1ccc(S(=O)(=O)Nc2nccs2)cc1)c1ccccc1 (stereo not drawn),"6.51 µM [rising, single point]",
O=C(O)c1ccc(NC(=S)NC(=O)c2cccnc2)cc1,"5.01 µM [falling, full curve, poor fit]",
Cc1cc(C(=O)OCC(=O)Nc2ccccc2Cl)c(C)o1,"29.1 µM [falling, single point]",
CCCC(=O)Nc1sc2c(c1C(=O)Nc1ccccn1)CCCC2,"35.5 µM [falling, single point]",
COc1cccc(COc2nc3c(c(=O)n(C)c(=O)n3C)n2C)c1,"5.8 µM [falling, partial curve, poor fit]",

# In the list so far, 3 contain fluorine.
SMILES,AC50 [1],AC50 [2]
COc1ccc(C(=O)COC(=O)/C=C/c2ccco2)cc1F,"20.6 µM [rising, partial curve, poor fit]",
O=C(NCCC1CCCCN1S(=O)(=O)c1cccs1)C(=O)Nc1cccc(F)c1 (stereo not drawn),"2.91 µM [falling, full curve]",
Cc1cc(C)c2c(N)c(C(=O)Nc3ccccc3C(F)(F)F)sc2n1,"3.55 µM [falling, full curve, poor fit]",

# Following part.

SMILES,AC50 [1],AC50 [2]
COc1ccc(C)cc1NC(=O)Nc1ccccc1,"29.1 µM [falling, single point]",
Cc1c(C(C)NC(=O)c2cc(COc3cccc4cnccc34)on2)cnn1C (stereo not drawn),"2.82 µM [falling, partial curve, poor fit]",
CCOc1ccccc1NC(=O)Cn1nnc(C(=O)NCc2ccc3c(c2)OCO3)c1N,"12.6 µM [rising, partial curve, poor fit]",
CCc1nc2ccccc2c(C(=O)OCC(=O)NC2CC2)c1C,"10.3 µM [rising, partial curve, poor fit]",
C[C@@]12CCC=C[C@H]1[C@H](c1ccc3ccccc3c1)N(Cc1ccccc1)C2=O,"3.55 µM [falling, partial curve, poor fit]",
CCNc1nc(NCC)nc(Oc2ccc(OCC)nn2)n1,"35.5 µM [rising, single point]",
Cc1cccc(NC(=O)c2ccc([N+](=O)[O-])s2)n1,"22.4 µM [falling, single point]",
CNC(=S)N(Cc1ccc2c(c1)OCO2)C1CC(=O)N(c2ccc(F)cc2)C1=O (stereo not drawn),"29.1 µM [falling, single point]",
Oc1ccc(-c2nc(-c3ccc(O)c(O)c3)cs2)cc1,"3.98 µM [falling, full curve, poor fit]",
O=C(Nc1ccc(Oc2ccccc2)nc1)C1CCCCN1Cc1ccco1 (stereo not drawn),"14.1 µM [rising, partial curve]","20 µM [falling, single point]"
CC(=O)Oc1ccc(/C=N/NC(=S)Nc2ccccc2)cc1,"25.9 µM [falling, single point]","20.6 µM [falling, single point]"
NNc1nc(-c2ccccc2)cc(-c2ccccc2O)n1,"0.112 µM [falling, full curve, poor fit]",
O=C(NCc1cccnc1)c1cccc(NS(=O)(=O)c2ccc(Br)cc2)c1,"29.1 µM [rising, single point]",
O=C1C(=O)N(CNc2cccnc2)c2ccccc21,"13 µM [rising, partial curve, poor fit]","20.6 µM [falling, partial curve, poor fit]"
Cn1c(=O)n(Cc2ccccc2)c(=O)c2c1nc1n2CCN1Cc1ccco1,"35.5 µM [falling, single point]",
Cc1cccc(NC(=O)c2nc(S(=O)(=O)Cc3ccccc3)ncc2Cl)c1,"10 µM [falling, partial curve]",
COc1ccccc1CN1CCNC(=O)C1CC(=O)NCc1cn(C)nc1C (stereo not drawn),"28.2 µM [rising, partial curve, poor fit]",
CCC(C)c1ccc(O)c(/C=N/O)c1 (stereo not drawn),"20.6 µM [rising, partial curve, poor fit]",
CCCOc1ncnc2c1[nH]c1ccc(C)cc12,"0.708 µM [rising, partial curve, poor fit]",
Cc1ccc(/C=C(\C#N)C(=O)NCc2ccco2)o1,"12.6 µM [falling, single point]",
O=C(Nc1ccc(C2=NCCN2)cc1)c1ccc(C(=O)Nc2ccc(C3=NCCN3)cc2)c([N+](=O)[O-])c1,"35.5 µM [rising, single point]",

# 2 entries picked at random from the list so far, as already listed:
SMILES,AC50 [1],AC50 [2]
Cn1c(=O)n(Cc2ccccc2)c(=O)c2c1nc1n2CCN1Cc1ccco1,"35.5 µM [falling, single point]",
Nc1ccc(-c2c3ccc(=O)cc-3oc3cc(O)ccc23)cc1C(=O)O,"6.31 µM [rising, single point]",
